Results: PMC11006759
Results are given in words; binding and its absence hold for the method and conditions named. In cells and extracts the contact can be indirect. A result given as binding can be weak or reduced; the word gives no strength.

What was measured:
[1] = target: T1, glutamine-rich protein 2 (QRICH2) (mouse (endogenous in mouse testes)) (UniProt Q3V2A7); test: co-IP; total proteins from mouse testes incubated with 5-10 µl target antibodies overnight at 4 °C, Protein A/G magnetic beads 60 min at room temperature, eluted in 1xSDS, western blot
T1 sequence: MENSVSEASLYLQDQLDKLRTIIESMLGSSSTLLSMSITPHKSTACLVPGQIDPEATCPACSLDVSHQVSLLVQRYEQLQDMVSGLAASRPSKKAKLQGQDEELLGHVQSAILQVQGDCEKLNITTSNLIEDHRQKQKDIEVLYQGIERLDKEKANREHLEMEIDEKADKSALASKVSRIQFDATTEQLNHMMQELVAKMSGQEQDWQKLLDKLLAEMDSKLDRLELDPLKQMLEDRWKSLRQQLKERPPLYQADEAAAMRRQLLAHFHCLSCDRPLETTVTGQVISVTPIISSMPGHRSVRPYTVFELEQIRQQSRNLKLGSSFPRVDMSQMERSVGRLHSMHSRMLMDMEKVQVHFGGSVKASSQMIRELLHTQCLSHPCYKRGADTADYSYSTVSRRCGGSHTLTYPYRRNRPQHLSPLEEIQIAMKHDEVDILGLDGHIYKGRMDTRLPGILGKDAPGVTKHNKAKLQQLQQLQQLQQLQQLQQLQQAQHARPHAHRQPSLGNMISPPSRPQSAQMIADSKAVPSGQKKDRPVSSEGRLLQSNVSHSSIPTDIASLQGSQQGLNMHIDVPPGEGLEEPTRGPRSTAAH

[2] = target: T1, glutamine-rich protein 2 (QRICH2) (mouse (endogenous in mouse testes)); test: proximity ligation; Duolink In Situ PLA on sperm cells fixed with 4% PFA and permeabilized with 0.3% Triton X-100; rabbit anti-QRICH2 and mouse anti-α-TUBULIN primary antibodies; signal within 40 nm

binding [1]: binds | binding [2]: binds
Substance: α-TUBULIN (mouse (endogenous in mouse testes))
